No constants are given. Whether binding was seen depends on the method and setting. Binding seen in cells or lysates may run through a third protein. Some results given as binding are weak or reduced against the parent protein; the word gives no strength.
Target: Wilms' tumor gene 1 protein (WT1), endogenous in K562 cells (human (endogenous in K562)) (UniProt P19544)
Test: co-IP; nuclear extracts of K562 cells, endogenous proteins; IP with anti-WT1 in 1 × Low IP buffer, wash with 1 × Low Wash buffer without DTT or NaCl (lower stringency); immunoblot with anti-NAB2; Sepharose only as negative control

binding: binds
B1: NAB2 (NGFI-A Binding Protein 2), endogenous in K562 cells (protein, UniProt Q15742-1 1-525)
chain: MHRAPSPTAEQPPGGGDSARRTLQPRLKPSARAMALPRTLGELQLYRVLQRANLLSYYETFIQQGGDDVQQLCEAGEEEFLEIMALVGMATKPLHVRRLQKALREWATNPGLFSQPVPAVPVSSIPLFKISETAGTRKGSMSNGHGSPGEKAGSARSFSPKSPLELGEKLSPLPGGPGAGDPRIWPGRSTPESDVGAGGEEEAGSPPFSPPAGGGVPEGTGAGGLAAGGTGGGPDRLEPEMVRMVVESVERIFRSFPRGDAGEVTSLLKLNKKLARSVGHIFEMDDNDSQKEEEIRKYSIIYGRFDSKRREGKQLSLHELTINEAAAQFCMRDNTLLLRRVELFSLSRQVARESTYLSSLKGSRLHPEELGGPPLKKLKQEVGEQSHPEIQQPPPGPESYVPPYRPSLEEDSASLSGESLDGHLQAVGSCPRLTPPPADLPLALPAHGLWSRHILQQTLMDEGLRLARLVSHDRVGRLSPCVPAKPPLAEFEEGLLDRCPAPGPHPALVEGRRSSVKVEAEASRQ

Source: paper PMC5675621
